{"source": "PubChem BioAssay AID504834", "about": "(National Center for Advancing Translational Sciences (NCATS), 2011)", "note": "The whole screen tested about 320,000 compounds, of which about 22,000 (6.9%) were called active. The inconclusive results got no clear call from the source; some entries with a clear call stand among them for comparison. Calls come from the whole dose curve; as a rule, active = well fitted inhibition curve with a large enough effect; inconclusive = small, poorly fitted or top-dose-only effect, or another doubt; inactive = no such curve, though single readings can be large or run the other way. Potencies beside an inconclusive call are fits to weak or partial responses and may not hold up. Potency is the fitted concentration of half-maximal effect.", "data": [{"assay": "Primary qHTS for delayed death inhibitors of the malarial parasite plastid, 96 hour incubation", "details": "P. falciparum luciferase reporter growth; series mostly up to 28.7 µM", "summary_of_the_method": "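96 h incubation, 37 C, 5% CO2, of luciferase-reporter P. falciparum-infected RBCs (2% hematocrit, 0.05% parasitemia final) with test compounds; endpoint luminescence.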", "values": [{"smiles": "O=C(CCNC(=O)c1ccc(Br)cc1)Nc1ccc(S(=O)(=O)N2CCCCC2)cc1", "Potency": "inconclusive: 4.15 µM [inhibitor, single point]"}, {"smiles": "COC(=O)c1cn(C(=O)c2ccccc2Cl)c2ccccc12", "Potency": "inactive"}, {"smiles": "Cc1ccc(-c2nc(CN(Cc3cnn(C)c3)C(C)C)c(C)o2)o1", "Potency": "active: 7.38 µM"}, {"smiles": "COc1ccc(NC(=O)C(C)N2C(=O)c3ccccc3C2=O)cc1S(=O)(=O)N1CCOCC1", "note": "(stereo not given)", "Potency": "inactive"}, {"smiles": "COc1cccc(N(CC(=O)NC2CCCC2)C(=O)Cn2nnc(-c3ccc(C)o3)n2)c1", "Potency": "active: 11.7 µM"}, {"smiles": "COc1ccc(CCC(=O)OCC(=O)c2ccc(C)cc2)cc1", "Potency": "inactive"}, {"smiles": "COc1cc(OC)cc(-c2n[nH]c(=S)n2-c2ccc3c(c2)OCO3)c1", "Potency": "inactive"}, {"smiles": "O=C(CN1C(=O)c2ccc([N+](=O)[O-])cc2C1=O)NCC1CCCO1", "note": "(stereo not given)", "Potency": "inconclusive: 4.15 µM [inhibitor, single point]"}, {"smiles": "N#CCCN1CCN(C(=O)c2c(N)no[n+]2[O-])CC1", "Potency": "inconclusive: 18.5 µM [inhibitor, single point]"}, {"smiles": "Cc1cccc(NC(=O)CSCC(=O)N(CCC(C)C)c2c(N)n(Cc3ccccc3)c(=O)[nH]c2=O)c1", "Potency": "inconclusive: 16.5 µM [inhibitor, single point]"}, {"smiles": "CCNC(=S)N1CCC(C(=O)c2ccc(Cl)cc2)CC1", "Potency": "inconclusive: 18.5 µM [inhibitor, single point]"}, {"smiles": "CCOC(=O)c1ccc(OCCOc2ccccc2C)cc1", "Potency": "inconclusive: 11.7 µM [inhibitor, single point]"}, {"smiles": "COCCN1CCN(c2cc(-c3ccccc3)nc3cc(-c4cccc(F)c4)nn23)CC1", "Potency": "inconclusive: 18.5 µM [inhibitor, single point]"}, {"smiles": "CCCc1ccc(C(=O)CCC(=O)NNC(=O)c2ccncc2)cc1", "Potency": "inconclusive: 14.7 µM [inhibitor, single point]"}, {"smiles": "CS(=O)(=O)Nc1cccc(C2=NN(C(=O)c3ccco3)C(c3cccs3)C2)c1", "note": "(stereo not given)", "Potency": "inactive"}, {"smiles": "CC(=O)OC1CC2(C)C(=O)CCC2C2CCc3cc(O)ccc3C12", "note": "(stereo not given)", "Potency": "inconclusive: 0.465 µM [inhibitor, full curve, poor fit]"}, {"smiles": "COc1ccc2cc(C(=O)/C=C/c3cc(OC)c(OC)c(OC)c3)ccc2c1", "Potency": "inconclusive: 18.5 µM [inhibitor, single point]"}, {"smiles": "CC(C)NS(=O)(=O)c1ccc(CCC(=O)NCc2ccncc2)cc1", "Potency": "inactive"}, {"smiles": "Cc1ccc(S(=O)(=O)NC2c3cccc4cccc(c34)C2Sc2nc(C)cc(C)n2)cc1", "note": "(stereo not given)", "Potency": "active: 8.28 µM"}, {"smiles": "O=C(CNC(=O)c1ccccc1)NC1(C(=O)NC2CCCCC2)CCCCC1", "Potency": "inactive"}, {"smiles": "Cc1ccc(OCCCC(=O)NC(C)c2ccccc2)cc1", "note": "(stereo not given)", "Potency": "inconclusive: 10.4 µM [inhibitor, partial curve, poor fit]"}, {"smiles": "C=CCSc1nc(N)c(C(=O)Nc2ccccc2)cc1C#N", "Potency": "inactive"}, {"smiles": "Cc1ccc2nc(-c3ccncc3)c(NC3CCCCC3)n2c1", "Potency": "inactive"}, {"smiles": "CCN(CC)C(=O)c1cc(-c2ccc3c(c2)OCO3)on1", "Potency": "inconclusive: 14.7 µM [inhibitor, single point]"}, {"smiles": "CC12CCC(C/C1=N/NC(=O)COc1ccccc1Cl)C2(C)C", "note": "(stereo not given)", "Potency": "inconclusive: 14.7 µM [inhibitor, single point]"}, {"smiles": "CC(=O)c1c(C)[nH]c(C(=O)CSc2nnc(-c3ccccc3)o2)c1C", "Potency": "inconclusive: 0.738 µM [inhibitor, partial curve, poor fit]"}, {"smiles": "COc1ccccc1CNC(=O)COC(=O)c1n[nH]c2ccccc12", "Potency": "inconclusive: 0.928 µM [inhibitor, partial curve, poor fit]"}, {"smiles": "CC(Cc1ccccc1)[n+]1cc(/N=C(\\[O-])N(C)C)on1", "note": "(stereo not given)", "Potency": "inconclusive: 18.5 µM [inhibitor, single point]"}, {"smiles": "O=C(CCNC(=O)C1CCN(S(=O)(=O)c2ccc(F)cc2)CC1)NCc1ccc(Cl)cc1", "Potency": "inactive"}, {"smiles": "O=C1c2cccc(OCc3ccc(F)cc3)c2CCN1Cc1ccc(F)cc1", "Potency": "inconclusive: 9.28 µM [inhibitor, single point]"}, {"smiles": "COc1ccc(N2CCN(C(=O)Cc3ccc(OC)c(OC)c3)CC2)cc1", "Potency": "inconclusive: 18.5 µM [inhibitor, single point]"}, {"smiles": "O=C(N/N=C/c1c(O)n(-c2ccccc2Cl)c(=O)c2ccccc12)c1cccnc1", "Potency": "inconclusive: 18.5 µM [inhibitor, single point]"}, {"smiles": "CC(C)(CNC(=O)c1cc(-c2ccc(Cl)s2)nc2ccccc12)N1CCOCC1", "Potency": "inconclusive: 11.7 µM [inhibitor, single point]"}, {"smiles": "CCN(CC(=O)Nc1ccccc1OC)CC(=O)Nc1c(Cl)ccc(C)c1Cl", "Potency": "inconclusive: 13.1 µM [inhibitor, single point]"}, {"smiles": "Cn1cnc2c1c(=O)n(Cc1ccc(Cl)cc1Cl)c(=O)n2C", "Potency": "active: 9.28 µM"}, {"smiles": "COC(=O)c1ccc(C(=O)OC)c(NC(=S)N2CCCC(CO)C2)c1", "note": "(stereo not given)", "Potency": "inconclusive: 10.4 µM [inhibitor, partial curve, poor fit]"}, {"smiles": "O=C(Nc1cc(C(F)(F)F)ccc1N1CCOCC1)c1cnccn1", "Potency": "inconclusive: 18.5 µM [inhibitor, single point]"}, {"smiles": "CC1(C)CC2(CCO1)OC(=O)CC2C(=O)Nc1ccccc1Cl", "note": "(stereo not given)", "Potency": "inactive"}, {"smiles": "O=C(CCl)Nc1cccc(S(=O)(=O)N2CCCCCC2)c1", "Potency": "active: 5.22 µM"}, {"smiles": "Cc1ccccc1Cn1c(CN2CCN(C(=O)c3ccco3)CC2)nc2c1c(=O)n(C)c(=O)n2C", "Potency": "inconclusive: 5.86 µM [inhibitor, partial curve]"}, {"smiles": "COc1ccccc1NC(=S)N1CCn2cccc2C1c1cccnc1", "note": "(stereo not given)", "Potency": "inconclusive: 18.5 µM [inhibitor, single point]"}, {"smiles": "Oc1nc(Nc2ccc(F)cc2)sc1/C=C1\\C=Nc2ccccc21", "Potency": "inconclusive: 14.7 µM [inhibitor, single point]"}, {"smiles": "CN(Cc1nccn1C)C(=O)c1ccc2nc(Cc3ccccc3F)oc2c1", "Potency": "inconclusive: 18.5 µM [inhibitor, single point]"}, {"smiles": "CC1CCN(c2nc3ccccc3n2CC(=O)c2ccccc2)CC1", "Potency": "inconclusive: 10.4 µM [inhibitor, partial curve]"}, {"smiles": "C/C(=N\\NC(=O)CSc1nc(C)cc(C)n1)c1ccc2c(c1)OCCO2", "Potency": "inconclusive: 5.22 µM [inhibitor, full curve, poor fit]"}, {"smiles": "CCCCn1c(-c2ccccc2C)nc2cc3[nH]c(=O)c(C(C)C)nc3cc21", "Potency": "inconclusive: 14.7 µM [inhibitor, partial curve, poor fit]"}, {"smiles": "COc1ccc(OCC(=O)N2CC3(C)CC2CC(C)(C)C3)cc1", "note": "(stereo not given)", "Potency": "inconclusive: 10.4 µM [inhibitor, single point]"}, {"smiles": "CCC1(CC)NC(=O)N(CC(=O)N2N=C(c3ccc(Cl)cc3)CC2c2ccco2)C1=O", "note": "(stereo not given)", "Potency": "inconclusive: 16.5 µM [inhibitor, single point]"}, {"smiles": "COc1ccc(-c2cc(C(F)(F)F)c(C#N)c(SCC(=O)O)n2)cc1OC", "Potency": "inactive"}, {"smiles": "COc1cc(N[C@@H](C)CCCN)c2ncccc2c1", "Potency": "active: 0.572 µM"}, {"smiles": "O=[N+]([O-])c1ccc(NCCNS(=O)(=O)c2ccccc2)cc1", "Potency": "inconclusive: 0.465 µM [inhibitor, full curve]"}, {"smiles": "O=C(COc1ccc2c3c(c(=O)oc2c1)CCCC3)NCc1ccncc1", "Potency": "inconclusive: 14.7 µM [inhibitor, single point]"}, {"smiles": "Cc1cc(Cl)ccc1Nc1ncccc1C(N)=O", "Potency": "inactive"}, {"smiles": "Cc1ccc(OC(C)C(=O)Nc2ccncc2)cc1", "note": "(stereo not given)", "Potency": "inactive"}, {"smiles": "CCOC(=O)c1ccc(NS(=O)(=O)c2cnc[nH]2)cc1", "Potency": "inconclusive: 4.15 µM [inhibitor, partial curve]"}, {"smiles": "O=C(c1ccc(N2C(=O)C3C4c5ccccc5C(c5ccccc54)C3C2=O)cc1)N1CCOCC1", "note": "(stereo not given)", "Potency": "inconclusive: 1.17 µM [inhibitor, full curve, poor fit]"}, {"smiles": "CC(NC(=S)Nc1ccccc1C(F)(F)F)C1CC2CCC1C2", "note": "(stereo not given)", "Potency": "inactive"}, {"smiles": "COc1ccc(C(=O)/C=C/c2ccc(OC3CSC3)cc2)cc1", "Potency": "inconclusive: 18.5 µM [inhibitor, single point]"}, {"smiles": "CC(CCCCCCCCC(=O)O)N(CCO)C(=O)OC(C)(C)C", "note": "(stereo not given)", "Potency": "inconclusive: 1.31 µM [inhibitor, partial curve]"}, {"smiles": "CC1(C)C2C(Cl)(Cl)C2(C)c2ccccc2N1C=O", "note": "(stereo not given)", "Potency": "inactive"}, {"smiles": "O=c1c2c3c(sc2n2cnnc2n1-c1ccccc1)N(Cc1ccccc1)CCC3", "Potency": "active: 4.15 µM"}, {"smiles": "CCOCC(=O)NCc1ccc2c(c1)cc(C)n2C", "Potency": "inconclusive: 3.29 µM [inhibitor, full curve, poor fit]"}, {"smiles": "CC(=O)O[C@]1(c2ccccc2)CCN(C)[C@H]2CCCC[C@@H]21", "Potency": "inconclusive: 18.5 µM [inhibitor, single point]"}, {"smiles": "CC[C@](C)(CN(C)C)OC(=O)c1ccccc1", "Potency": "inconclusive: 1.02 µM [inhibitor, full curve]"}, {"smiles": "Cc1cc(C)nc(/N=C(\\N)Nc2ccc(-c3ccccc3)cc2)n1", "Potency": "inconclusive: 10.4 µM [inhibitor, single point]"}, {"smiles": "O=C(COC(=O)c1c(Cl)cccc1Cl)Nc1cc(Cl)ccc1Oc1ccccc1", "Potency": "inconclusive: 11.7 µM [inhibitor, single point]"}, {"smiles": "COC(=O)C1=C(CS(=O)(=O)c2ccccc2)NC(=O)NC1c1ccc(OC)c(OC)c1", "note": "(stereo not given)", "Potency": "inconclusive: 18.5 µM [inhibitor, single point]"}, {"smiles": "Nc1nc(N)nc(-c2cc(O)ccc2O)n1", "Potency": "inconclusive: 1.85 µM [inhibitor, partial curve, poor fit]"}, {"smiles": "O=C(O)C1C2C=CC(O2)C1C(=O)Nc1ccc(S(=O)(=O)Nc2ccccc2)cc1", "note": "(stereo not given)", "Potency": "inactive"}, {"smiles": "CC1=C(C(=O)Nc2ccc(C(=O)NCCC(C)C)cc2)SCCO1", "Potency": "inconclusive: 11.7 µM [inhibitor, single point]"}]}]}
